Part of at least one peptide drawing is inferred or uncertain, most often the ends. Some compounds share one wording; it may come from a single statement. Ends that are not written are not given here.
System: human HLA-A type molecule
Assay: Binding experiment, result stated in words for HLA-A type molecule
Procedure: <Experiment of Binding Peptide to HLA-A24 Molecule>
The ability of a peptide to bind to an HLA-A24 molecule, which is a product of the HLA-A*2402 gene, was measured using C1R-A24 cells expressing the HLA-A24 molecule (cells prepared by Professor Masafumi Takiguchi, Kumamoto University being supplied with permission by Assistant Professor Masaki Yasukawa, Ehime University).
C1R-A24 cells were first exposed to acidic conditions at a pH of 3.3 for 30 seconds, thus dissociating and removing a light chain β2m, which is associated with HLA class I molecules in common, and an endogenous peptide originally bound to the HLA-A*2402 molecule. […]
Subsequently, the MHC-pep count per C1R-A24 cell (proportional to the strength of fluorescence of the above-mentioned fluorescent antibody) was quantitatively measured using an FACScan fluorescence-activated cell sorter (Becton Dickinson Biosciences). A binding dissociation constant Kd value between the HLA-A24 molecule and the peptide was calculated from the average strength of fluorescence per cell by a published method (Udaka et al., Immunogenetics, 51, 816-828, 2000). […]
The above-mentioned JY cells and the purified β2m were added to stepped dilutions of peptide for which the binding ability would be measured, and incubation was carried out on ice for 4 hours. […]

**Q.** VAAGSSSSV [compound 43] was tested. Which “binding to a human HLA-A type molecule (in words)” value did it give?
**A.** The value was “experimentally confirmed to bind”.

Reference: patent US20080293916A1, “Hla-Binding Peptide, and Dna Fragment and Recombinant Vector Coding for Said Hla-Binding Peptide” (NEC CORPORATION, priority 2004, published 2008)
